PubChem BioAssay AID1259275, Sanger Institute | 2017
Here is one part, drawn at random, of 794 reagents. 13 of all reagents (1.6%) count as active. 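Calls mark knock-downs lethal by themselves, not drug synergy; drugs went in a day after transfection, with DMSO as vehicle.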 Unmarked entries are inactive. Not all columns of the deposit are shown. Reagent sequences are not shown. Not given: the amount of reagent, the time to read-out.

- Test: 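Kinase and colorectal cancer genes needed for cancer cell survival, with or without drugs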 (primary screen)
- Cell system: COLO320HSR human colorectal cancer cells
- Reagents: siRNA pool against human genes
- Challenge: anchor drug added one day after transfection: BYL719 at 1 µM, cetuximab at 5 µg/ml or trametinib at 10 nM; DMSO as vehicle arm
- Measurement: 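Replicate-mean viability versus non-targeting pool control, robust z-score without drug, and per-drug synergy scores for BYL719 at 1 µM, cetuximab at 5 µg/ml and trametinib at 10 nM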
- Reading the numbers: robust z-score, siRNA alone: higher = more viable cells; strongly negative means essential
- Hit rule: 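a gene is called essential when its robust z-score without drug falls below -3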
- Meaning of the calls: active = essential (siRNA alone); inactive = no change (siRNA alone)

robust z-score, siRNA alone	gene knocked down
0.726	BLK (BLK proto-oncogene, Src family tyrosine kinase)
0.717	MAP3K7 (mitogen-activated protein kinase kinase kinase 7)
-0.982	FGR (FGR proto-oncogene, Src family tyrosine kinase)
-1.29	STRADA (STE20 related adaptor alpha)
0.167	AK1 (adenylate kinase 1)
0.726	WNK2 (WNK lysine deficient protein kinase 2)
0.32	RIPK3 (receptor interacting serine/threonine kinase 3)
-0.116	RIPK4 (receptor interacting serine/threonine kinase 4)
-0.835	DCK (deoxycytidine kinase)
-0.195	CDK3 (cyclin dependent kinase 3)
-0.214	PLK4 (polo like kinase 4)
-1.28	MAP3K19 (mitogen-activated protein kinase kinase kinase 19)
0.726	FGFR4 (fibroblast growth factor receptor 4)
0.726	ARID1A (AT-rich interaction domain 1A)
0.158	AK5 (adenylate kinase 5)

Sorted by “robust z-score, siRNA alone” (low to high): some entries from above
robust z-score, siRNA alone	gene knocked down
-0.835	DCK (deoxycytidine kinase)
-0.195	CDK3 (cyclin dependent kinase 3)
-0.116	RIPK4 (receptor interacting serine/threonine kinase 4)
0.32	RIPK3 (receptor interacting serine/threonine kinase 3)
0.726	WNK2 (WNK lysine deficient protein kinase 2)

More results:
robust z-score, siRNA alone	gene knocked down
0.726	EPHA4 (EPH receptor A4)
0.726	STKLD1 (serine/threonine kinase like domain containing 1)
0.25	TGFBR2 (transforming growth factor beta receptor 2)
0.305	ACSL6 (acyl-CoA synthetase long chain family member 6)
0.726	CDK5 (cyclin dependent kinase 5)
0.446	STK24 (serine/threonine kinase 24)
0.726	PSTK (phosphoseryl-tRNA kinase)
-0.386	PRKCI (protein kinase C iota)
0.726	STK10 (serine/threonine kinase 10)
-2.59	TTBK2 (tau tubulin kinase 2)
0.544	DAPK3 (death associated protein kinase 3)
-0.86	SRP72 (signal recognition particle 72)
0.726	CSNK1G3 (casein kinase 1 gamma 3)
-0.78	LMTK1 (lemur tail kinase 1)
0.726	DIS3 (DIS3 exosome endoribonuclease and 3'-5' exoribonuclease)
0.726	ACVR2A (activin A receptor type 2A)
0.726	PRKX (protein kinase cAMP-dependent X-linked catalytic subunit)
0.726	DLG2 (discs large MAGUK scaffold protein 2)
-0.159	RBM10 (RNA binding motif protein 10)
